Literature values, collected in patent publication US20120046286A1, “Novel Compounds” (priority 2009, published 2012).

Chains of the proteins cited; added tags and fusions are not shown.
UniProt P68400, whole entry: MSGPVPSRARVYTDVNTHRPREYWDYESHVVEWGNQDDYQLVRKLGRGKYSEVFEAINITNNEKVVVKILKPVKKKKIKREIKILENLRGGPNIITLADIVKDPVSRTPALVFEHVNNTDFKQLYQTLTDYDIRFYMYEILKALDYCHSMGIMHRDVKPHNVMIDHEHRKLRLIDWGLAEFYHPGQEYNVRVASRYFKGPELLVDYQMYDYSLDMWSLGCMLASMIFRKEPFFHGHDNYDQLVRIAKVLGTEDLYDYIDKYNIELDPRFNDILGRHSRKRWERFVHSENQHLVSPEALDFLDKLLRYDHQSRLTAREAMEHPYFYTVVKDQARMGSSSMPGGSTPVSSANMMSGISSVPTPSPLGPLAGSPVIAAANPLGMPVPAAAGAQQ

What was measured:
Class I PI3-kinases = details: Fruman et al. 1998; read-out: IC50 against each of the Class I PI3-kinases
CK2 protein kinase = CK2 protein kinase (Homo sapiens, UniProt P68400); details: read-out: IC50 on CK2 protein kinase

SMILES: O=c1cc(N2CCOCC2)oc2c(-c3ccccc3)cccc12 [LY294002]
- IC50 (Class I PI3-kinases): 15 to 20 µM
- IC50 (CK2 protein kinase): 5 to 10 µM
